# The supplement of paper PMC10470496
# Structures can show the parent of a compound that is named as a salt. This is one part of the list. Repeats are few or missing, and single values can be far off.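 The strains were three CDC resistance-bank clinical C. auris isolates from clades III, IV and I, cultured in RPMI-1640 at 35°C. Growth was background-corrected OD600 versus vehicle-only wells on the same plate. A hit needed >50% inhibition in two or more strains plus a plate-corrected B-score exceeding 0.1.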
# Tested on: C. auris AR-387
# Assay: growth relative to vehicle control (OD600 ratio) (fraction); higher = less inhibition
# Settings: 10 µM; 24 h
row,Structure (SMILES),growth
1,COc1ncc(-c2ccc3nccc(-c4ccnnc4)c3c2)cc1NS(=O)(=O)c1ccc(F)cc1F,1.05
2,OCc1cc(C(O)CNCCCCCCOCCCCc2ccccc2)ccc1O (stereo not drawn) [Salmeterol Xinafoate],0.87
3,Cc1ncc(C[n+]2csc(CCO)c2C)c(N)n1 [Thiamine HCl (Vitamin B1)],1.12
4,Nc1cccc2c1CN(C1CCC(=O)NC1=O)C2=O (stereo not drawn) [Lenalidomide (CC-5013)],0.76
5,C#C[C@]1(OC(C)=O)CC[C@H]2[C@@H]3CCC4=C[C@@H](OC(C)=O)CC[C@@H]4[C@H]3CC[C@@]21C [Ethynodiol diacetate],0.81
6,Cc1ccc(NC(=O)c2ccc(CN3CC[C@H](N(C)C)C3)c(C(F)(F)F)c2)cc1Nc1nccc(-c2cncnc2)n1 [Bafetinib (INNO-406)],0.83
7,CN(C)C/C=C/C(=O)Nc1cc2c(Nc3ccc(F)c(Cl)c3)ncnc2cc1O[C@H]1CCOC1 [Afatinib (BIBW2992)],0.97
8,CN1C(C(=O)Nc2ccccn2)=C(O)c2ccccc2S1(=O)=O [Piroxicam],0.75
9,Cc1ccnc2c1NC(=O)c1cccnc1N2C1CC1 [Nevirapine],0.9
10,C[N+]1(C)[C@@H]2C[C@@H](OC(=O)C(O)(c3cccs3)c3cccs3)C[C@H]1[C@@H]1O[C@@H]12 [Tiotropium Bromide hydrate],0.88
11,CCCN(CCC)CCc1cccc2c1CC(=O)N2 [Ropinirole HCl],0.76
12,Cc1ncc(CO)c(CO)c1O [Pyridoxine HCl],0.57
13,COc1cc(/C=C/C(=O)N2CCN(CC(=O)N3CCCC3)CC2)cc(OC)c1OC [Cinepazide maleate],1.35
